We go through 2 substances from paper PMC4053355.

Amino acid sequences for entries named in this document (tags omitted). Residues count along the entry.
UniProt Q15643: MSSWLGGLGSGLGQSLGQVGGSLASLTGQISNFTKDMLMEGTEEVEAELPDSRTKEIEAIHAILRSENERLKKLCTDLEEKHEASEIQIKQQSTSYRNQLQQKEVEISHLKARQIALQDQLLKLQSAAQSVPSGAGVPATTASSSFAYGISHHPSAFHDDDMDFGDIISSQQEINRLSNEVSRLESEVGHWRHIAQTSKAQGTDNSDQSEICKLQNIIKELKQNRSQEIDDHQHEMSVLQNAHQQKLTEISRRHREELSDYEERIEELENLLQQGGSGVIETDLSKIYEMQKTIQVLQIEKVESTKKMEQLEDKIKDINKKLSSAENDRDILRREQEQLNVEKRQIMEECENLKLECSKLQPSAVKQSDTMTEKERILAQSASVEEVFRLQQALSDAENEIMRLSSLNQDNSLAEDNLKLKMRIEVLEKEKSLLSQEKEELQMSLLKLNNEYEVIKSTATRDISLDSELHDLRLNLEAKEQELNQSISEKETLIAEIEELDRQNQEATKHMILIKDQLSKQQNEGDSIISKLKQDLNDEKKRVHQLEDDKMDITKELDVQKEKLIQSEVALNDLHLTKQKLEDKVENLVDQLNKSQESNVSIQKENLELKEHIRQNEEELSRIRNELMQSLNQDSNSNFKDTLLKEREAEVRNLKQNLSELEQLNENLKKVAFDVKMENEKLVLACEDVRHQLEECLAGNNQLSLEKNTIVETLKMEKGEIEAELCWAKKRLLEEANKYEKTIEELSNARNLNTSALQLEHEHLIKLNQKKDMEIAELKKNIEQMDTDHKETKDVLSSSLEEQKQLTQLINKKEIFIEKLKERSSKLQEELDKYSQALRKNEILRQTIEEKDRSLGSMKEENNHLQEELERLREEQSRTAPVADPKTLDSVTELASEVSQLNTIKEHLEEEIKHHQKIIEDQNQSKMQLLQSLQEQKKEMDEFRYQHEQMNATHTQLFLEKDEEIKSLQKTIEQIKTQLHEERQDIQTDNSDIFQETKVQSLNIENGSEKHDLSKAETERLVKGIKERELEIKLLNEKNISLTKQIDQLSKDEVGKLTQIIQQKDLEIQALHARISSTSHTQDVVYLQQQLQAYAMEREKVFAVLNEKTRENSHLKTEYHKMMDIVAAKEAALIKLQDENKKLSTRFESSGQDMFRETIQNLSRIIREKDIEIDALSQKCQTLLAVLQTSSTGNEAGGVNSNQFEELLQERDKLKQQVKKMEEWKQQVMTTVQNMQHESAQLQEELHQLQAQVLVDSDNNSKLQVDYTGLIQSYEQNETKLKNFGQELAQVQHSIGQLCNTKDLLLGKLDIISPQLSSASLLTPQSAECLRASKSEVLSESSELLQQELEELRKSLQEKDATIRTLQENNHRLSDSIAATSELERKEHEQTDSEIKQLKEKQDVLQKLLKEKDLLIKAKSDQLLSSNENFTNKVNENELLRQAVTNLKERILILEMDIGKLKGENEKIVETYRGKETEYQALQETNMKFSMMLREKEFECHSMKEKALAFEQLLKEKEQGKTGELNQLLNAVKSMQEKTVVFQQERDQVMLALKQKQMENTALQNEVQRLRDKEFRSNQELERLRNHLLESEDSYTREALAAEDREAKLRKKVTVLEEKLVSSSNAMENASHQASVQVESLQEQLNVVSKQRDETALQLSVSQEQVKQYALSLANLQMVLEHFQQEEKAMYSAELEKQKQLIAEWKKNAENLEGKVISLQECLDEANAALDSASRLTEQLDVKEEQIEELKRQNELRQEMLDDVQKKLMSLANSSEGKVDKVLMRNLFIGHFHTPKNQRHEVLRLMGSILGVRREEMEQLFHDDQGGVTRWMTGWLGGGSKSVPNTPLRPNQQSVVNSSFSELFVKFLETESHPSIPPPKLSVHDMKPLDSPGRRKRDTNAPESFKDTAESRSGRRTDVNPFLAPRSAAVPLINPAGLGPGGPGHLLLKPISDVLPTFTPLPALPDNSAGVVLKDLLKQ
UniProt P53762, residues 344-479: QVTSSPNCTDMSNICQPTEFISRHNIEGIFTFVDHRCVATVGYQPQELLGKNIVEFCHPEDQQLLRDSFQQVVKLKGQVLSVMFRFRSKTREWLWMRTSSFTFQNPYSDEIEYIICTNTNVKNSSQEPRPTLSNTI
UniProt P27540: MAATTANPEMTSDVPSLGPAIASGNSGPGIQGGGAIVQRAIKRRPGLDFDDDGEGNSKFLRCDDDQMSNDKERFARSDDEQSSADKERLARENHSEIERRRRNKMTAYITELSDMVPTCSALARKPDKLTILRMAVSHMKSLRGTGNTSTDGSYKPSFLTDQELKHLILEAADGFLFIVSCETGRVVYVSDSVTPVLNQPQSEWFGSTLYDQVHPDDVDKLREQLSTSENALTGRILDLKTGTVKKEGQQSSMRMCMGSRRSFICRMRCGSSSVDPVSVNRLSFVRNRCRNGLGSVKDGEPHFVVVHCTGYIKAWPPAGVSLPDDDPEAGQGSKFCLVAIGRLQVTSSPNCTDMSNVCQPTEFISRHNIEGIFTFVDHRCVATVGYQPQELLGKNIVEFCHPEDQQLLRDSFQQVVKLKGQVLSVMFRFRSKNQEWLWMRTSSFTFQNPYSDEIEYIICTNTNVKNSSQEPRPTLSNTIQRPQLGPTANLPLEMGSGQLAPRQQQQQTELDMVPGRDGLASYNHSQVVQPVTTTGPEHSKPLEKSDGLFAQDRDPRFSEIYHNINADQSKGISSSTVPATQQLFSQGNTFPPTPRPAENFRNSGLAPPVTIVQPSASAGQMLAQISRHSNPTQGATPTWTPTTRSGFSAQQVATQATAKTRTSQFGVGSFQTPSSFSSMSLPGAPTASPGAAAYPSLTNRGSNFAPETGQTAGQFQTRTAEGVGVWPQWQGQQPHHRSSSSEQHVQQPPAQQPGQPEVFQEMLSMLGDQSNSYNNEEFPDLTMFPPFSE

No constants are given. Whether binding was seen depends on the method and setting. In cells and extracts the contact can be indirect. Some results given as binding are weak or reduced against the parent protein; the word gives no strength.

The target of assay [1] is thyroid hormone receptor/retinoblastoma-interacting protein-230 (TRIP230) (human (endogenous in MCF7)) (UniProt Q15643). Briefly: co-IP; about 1 mg nuclear extract of MCF7 cells kept in 1% O2 for 6 h, 5 µg anti-TRIP230 mouse IgG or control mouse IgG, 4°C 90 min, Protein-G sepharose; immuno-blot for TRIP230, ARNT and Rb.
The target of assay [2] is GST-ARNT-PAS-B (amino acids 344-479 of mouse ARNT, expanded PAS-B domain, fused to GST) (mouse) (UniProt P53762). Nature of the assay: pull-down; GST or GST-ARNT-PAS-B on glutathione-agarose beads incubated with MCF7 nuclear extract at 4°C for 90 min; extracts of cells at normoxia or in 1% O2 for 6 h; immuno-blot for TRIP230, Rb or phospho-Rb (Ser780); only the target purified.

Take “aryl hydrocarbon receptor nuclear translocator (ARNT) (from UniProt P27540 1-789)”: in assay [1], the binding result is “binds”.

In the case of “thyroid hormone receptor/retinoblastoma-interacting protein-230 (TRIP230) (from UniProt Q15643 1-1979)”, in assay [2], the binding result is reported as “binds”.
